No constants are given. Whether binding was seen depends on the method and setting. Binding seen in cells or lysates may run through a third protein. A yes stands for co-enrichment or nearness to the bait. Other partners may have been found. Sequences can lack the tags named with a protein.
T1: GST-A2AR^284–410 (C-terminus of mouse adenosine A2A receptor fused to GST) (mouse) (UniProt Q60613)
T1 sequence: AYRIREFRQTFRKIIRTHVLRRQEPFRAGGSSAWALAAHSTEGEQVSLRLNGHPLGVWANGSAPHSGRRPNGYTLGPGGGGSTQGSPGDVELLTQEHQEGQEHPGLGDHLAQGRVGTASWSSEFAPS

T2: cMyc-A2AR^284–410 (C-terminus of mouse adenosine A2A receptor tagged with cMyc epitope) (mouse) (UniProt Q60613)
T2 sequence: T1 sequence

B1: O-acyltransferase (enzyme, UniProt Q61263 1-540)
chain: MSLRNRLSKSGENPEQDEAQKNFMDTYRNGHITMKQLIAKKRLLAAEAEELKPLFMKEVGCHFDDFVTNLIEKSASLDNGGCALTTFSILEEMKKNHRAKDLRAPPEQGKIFISRQSLLDELFEVDHIRTIYHMFIALLILFVLSTIVVDYIDEGRLVLEFNLLAYAFGKFPTVIWTWWAMFLSTLSIPYFLFQRWAHGYSKSSHPLIYSLVHGLLFLVFQLGVLGFVPTYVVLAYTLPPASRFILILEQIRLIMKAHSFVRENIPRVLNAAKEKSSKDPLPTVNQYLYFLFAPTLIYRDNYPRTPTVRWGYVAMQFLQVFGCLFYVYYIFERLCAPLFRNIKQEPFSARVLVLCVFNSILPGVLILFLSFFAFLHCWLNAFAEMLRFGDRMFYKDWWNSTSYSNYYRTWNVVVHDWLYYYVYKDLLWFFSKRFKSAAMLAVFALSAVVHEYALAICLSYFYPVLFVLFMFFGMAFNFIVNDSRKRPIWNIMVWASLFLGYGLILCFYSQEWYARQHCPLKNPTFLDYVRPRTWTCRYVF
B2: DEAD (Asp-Glu-Ala-Asp) box polypeptide 21 (enzyme, UniProt Q9JIK5 1-851)
chain: MPGKLRSGAKLGSDGAEESMETLPKPSEKKTRKEKTKSKTEEATEGMEEAVSSKAKKTNKKGPSEDDVDPPKSRKAKKQEEEPQDDTASTSKTSKKKKEPLEKQADSETKEIITEEPSEEEADMPKPKKMKKGKEANGDAGEKSPKLKNGLSQPSEEEADIPKPKKMKKGKEANGDAGEKSPKLKNGLSQPSEEEVDIPKPKKMKKGKEASGDAGEKSPRLKDGLSQPSEPKSNSSDAPGEESSSETEKEIPVEQKEGAFSNFPISEETVKLLKARGVNFLFPIQAKTFHHVYSGKDLIAQARTGTGKTFSFAIPLIEKLQGGLQERKRGRAPQVLVLAPTRELANQVSKDFSDITKKLSVACFYGGTPYGGQIERMRSGIDILVGTPGRIKDHLQNGKLDLTKLKHVVLDEVDQMLDMGFADQVEEILCVAYKKDSEDNPQTLLFSATCPHWVFNVAKKYMKSTYEQVDLIGKKTQKAAITVEHLAIKCHWTERAAVIGDVIRVYSGHQGRTIIFCETKKDAQELSQNTCIKQDAQSLHGDIPQKQREITLKGFRNGNFGVLVATNVAARGLDIPEVDLVVQSCPPKDVESYIHRSGRTGRAGRTGVCICFYQNKEEYQLAQVEQKAGIKFKRIGVPSATEIIKASSKDAIRLLDSVPPTAISHFKQSAEKLIEEKGAVEALAAALAHISGATSVDQRSLINSQAGFVTMILRCSIEMPNISYAWKELKEQLGESIDAKVKGMVFLKGKLGVCFDVRTEAVTEIQEKWHDSRRWQLTVATEQPELEGPPDGYRGRMGQRDGSRGAFRGQRGGSRNFRGQGQRGGSRNFRGQRPGGGNRGQKRSFSKAFGQ
B3: Isoform 2 of splicing factor 3B subunit 3 (protein, UniProt Q921M3-2 1-1122)
chain: MFLYNLTLQRATGISFAIHGNFSGTKQQEIVVSRGKILELLRPDPNTGKVHTLLTVEVFGVIRSLMAFRLTGGTKDYIVVGSDSGRIVILEYQPSKNMFEKIHQETFGKSGCRRIVPGQFLAVDPKGRAVMISAIEKQKLVYILNRDAAARLTISSPLEAHKANTLVYHVVGVDVGFENPMFACLEMDYEEADNDPTGEAAANTQQTLTFYELDLGLNHVVRKYSEPLEEHGNFLITVPGGSDGPSGVLICSENYITYKNFGDQPDIRCPIPRRRNDLDDPERGMIFVCSATHKTKSMFFFLAQTEQGDIFKITLETDEDMVTEIRLKYFDTVPVAAAMCVLKTGFLFVASEFGNHYLYQIAHLGDDDEEPEFSSAMPLEEGDTFFFQPRPLKNLVLVDELDSLSPILFCQIADLANEDTPQLYVACGRGPRSSLRVLRHGLEVSEMAVSELPGNPNAVWTVRRHIEDEFDAYIIVSFVNATLVLSIGETVEEVTDSGFLGTTPTLSCSLLGDDALVQVYPDGIRHIRADKRVNEWKTPGKKTIVKCAVNQRQVVIALTGGELVYFEMDPSGQLNEYTERKEMSADVVCMSLANVPPGEQRSRFLAVGLVDNTVRIISLDPSDCLQPLSMQALPAQPESLCIVEMGGTEKQDELGERGSIGFLYLNIGLQNGVLLRTVLDPVTGDLSDTRTRYLGSRPVKLFRVRMQGQEAVLAMSSRSWLSYSYQSRFHLTPLSYETLEFASGFASEQCPEGIVAISTNTLRILALEKLGAVFNQVAFPLQYTPRKFVIHPESNNLIIIETDHNAYTEATKAQRKQQILSPRSVAGGFVYTYKLVNNGEKLEFLHKTPVEEVPAAIAPFQGRVLIGVGKLLRVYDLGKKKLLRKCENKHIANYISGIQTIGHRVIVSDVQESFIWVRYKRNENQLIIFADDTYPRWVTTASLLDYDTVAGADKFGNICVVRLPPNTNDEVDEDPTGNKALWDRGLLNGASQKAEVIMNYHVGETVLSLQKTTLIPGGSESLVYTTLSGGIGILVPFTSHEDHDFFQHVEMHLRSEHPPLCGRDHLSFRSYYFPVKNVIDGDLCEQFNSMEPNKQKNVSEELDRTPPEVSKKLEDIRTRYAF

What follows are binders tested against T1, GST-A2AR^284–410 (C-terminus of mouse adenosine A2A receptor fused to GST) (mouse) (assay: affinity purification with mass spectrometry; pull-down: 20 µg MagneGST-bound GST-A2AR^284–410 (GST alone in parallel) incubated with 500 µg mouse peritoneal macrophage (IPMФ) lysate overnight at 4 °C; SDS-PAGE, trypsin digest, MALDI-TOF mass spectrometry; only the target purified).

binding | Binder
binds | B1
binds | B2
binds | B3

What follows are binders tested against T2, cMyc-A2AR^284–410 (C-terminus of mouse adenosine A2A receptor tagged with cMyc epitope) (mouse) (assay: affinity purification with mass spectrometry; co-IP of cMyc-A2AR^284–410 with 1 µg anti-cMyc antibody (isotype control IgG1 in parallel) from 500 µg protein extract of transfected RAW 264.7 cells in RIPA buffer diluted with PBS, overnight at 4 °C; SDS-PAGE, trypsin digest, MALDI-TOF mass spectrometry).

binding | Binder
binds | B1
binds | B2
binds | B3
